Counter-ions that a name gives are not always drawn. The list shows a part of the results. The calls rarely recur for the same compound in another form.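 Kinases were expressed as nanoluciferase fusions in K562 cells and luminescence was read every 4 h between 2 and 18 h as percent of control, DMSO set to 100% and a positive control to 0%. A time point counts as decreased when the signal drops significantly (2 sigma). The hit call is the authors' own, does not follow from the count of time points alone, and its rule is not shown.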
Tests used:
Test in all cases: kinase-Nluc reporter destabilization hit call (1 = scored as downregulated) (binary); higher = compound decreases kinase abundance
Conditions in all cases: K562; 2-18 h
[1] = target: ABL1 (UniProt P00519)
[2] = target: AKT1 (UniProt P31749)
[3] = target: ALK (UniProt Q9UM73)
[4] = target: ARAF (UniProt P10398)
[5] = target: AURKA (UniProt O14965)
[6] = target: AURKB (UniProt Q96GD4)
[7] = target: AURKC (UniProt Q9UQB9)
[8] = target: BLK (UniProt P51451)
[9] = target: BMX (UniProt P51813)
[10] = target: BRAF (UniProt P15056)
[11] = system: BRAF_V600E
[12] = target: BTK (UniProt Q06187)
[13] = target: CAMK2A (UniProt Q9UQM7)
[14] = target: CAMK2G (UniProt Q13555)
[15] = target: CDK10 (UniProt Q15131)
[16] = target: CDK2 (UniProt P24941)
[17] = target: CDK3 (UniProt Q00526)
[18] = target: CDK4 (UniProt P11802)
[19] = target: CDK5 (UniProt Q00535)
[20] = target: CDK6 (UniProt Q00534)

Sequences of proteins named here, by UniProt entry; tags and fusion partners are left off. A change or cut given only in a name is not applied to a line headed by its entry.
UniProt P31749: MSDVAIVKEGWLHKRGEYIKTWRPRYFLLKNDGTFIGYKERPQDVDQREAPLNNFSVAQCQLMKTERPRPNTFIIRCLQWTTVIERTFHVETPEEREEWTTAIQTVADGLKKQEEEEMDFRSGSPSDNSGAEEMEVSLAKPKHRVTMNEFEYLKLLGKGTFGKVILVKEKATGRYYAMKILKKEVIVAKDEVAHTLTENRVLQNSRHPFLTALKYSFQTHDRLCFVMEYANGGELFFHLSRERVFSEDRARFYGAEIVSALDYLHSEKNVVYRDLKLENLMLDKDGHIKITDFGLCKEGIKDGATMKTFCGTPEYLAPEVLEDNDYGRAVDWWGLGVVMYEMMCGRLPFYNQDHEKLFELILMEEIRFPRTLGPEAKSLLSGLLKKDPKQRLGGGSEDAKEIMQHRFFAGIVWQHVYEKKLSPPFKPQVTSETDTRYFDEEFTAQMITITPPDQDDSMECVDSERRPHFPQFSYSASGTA
UniProt Q9UM73: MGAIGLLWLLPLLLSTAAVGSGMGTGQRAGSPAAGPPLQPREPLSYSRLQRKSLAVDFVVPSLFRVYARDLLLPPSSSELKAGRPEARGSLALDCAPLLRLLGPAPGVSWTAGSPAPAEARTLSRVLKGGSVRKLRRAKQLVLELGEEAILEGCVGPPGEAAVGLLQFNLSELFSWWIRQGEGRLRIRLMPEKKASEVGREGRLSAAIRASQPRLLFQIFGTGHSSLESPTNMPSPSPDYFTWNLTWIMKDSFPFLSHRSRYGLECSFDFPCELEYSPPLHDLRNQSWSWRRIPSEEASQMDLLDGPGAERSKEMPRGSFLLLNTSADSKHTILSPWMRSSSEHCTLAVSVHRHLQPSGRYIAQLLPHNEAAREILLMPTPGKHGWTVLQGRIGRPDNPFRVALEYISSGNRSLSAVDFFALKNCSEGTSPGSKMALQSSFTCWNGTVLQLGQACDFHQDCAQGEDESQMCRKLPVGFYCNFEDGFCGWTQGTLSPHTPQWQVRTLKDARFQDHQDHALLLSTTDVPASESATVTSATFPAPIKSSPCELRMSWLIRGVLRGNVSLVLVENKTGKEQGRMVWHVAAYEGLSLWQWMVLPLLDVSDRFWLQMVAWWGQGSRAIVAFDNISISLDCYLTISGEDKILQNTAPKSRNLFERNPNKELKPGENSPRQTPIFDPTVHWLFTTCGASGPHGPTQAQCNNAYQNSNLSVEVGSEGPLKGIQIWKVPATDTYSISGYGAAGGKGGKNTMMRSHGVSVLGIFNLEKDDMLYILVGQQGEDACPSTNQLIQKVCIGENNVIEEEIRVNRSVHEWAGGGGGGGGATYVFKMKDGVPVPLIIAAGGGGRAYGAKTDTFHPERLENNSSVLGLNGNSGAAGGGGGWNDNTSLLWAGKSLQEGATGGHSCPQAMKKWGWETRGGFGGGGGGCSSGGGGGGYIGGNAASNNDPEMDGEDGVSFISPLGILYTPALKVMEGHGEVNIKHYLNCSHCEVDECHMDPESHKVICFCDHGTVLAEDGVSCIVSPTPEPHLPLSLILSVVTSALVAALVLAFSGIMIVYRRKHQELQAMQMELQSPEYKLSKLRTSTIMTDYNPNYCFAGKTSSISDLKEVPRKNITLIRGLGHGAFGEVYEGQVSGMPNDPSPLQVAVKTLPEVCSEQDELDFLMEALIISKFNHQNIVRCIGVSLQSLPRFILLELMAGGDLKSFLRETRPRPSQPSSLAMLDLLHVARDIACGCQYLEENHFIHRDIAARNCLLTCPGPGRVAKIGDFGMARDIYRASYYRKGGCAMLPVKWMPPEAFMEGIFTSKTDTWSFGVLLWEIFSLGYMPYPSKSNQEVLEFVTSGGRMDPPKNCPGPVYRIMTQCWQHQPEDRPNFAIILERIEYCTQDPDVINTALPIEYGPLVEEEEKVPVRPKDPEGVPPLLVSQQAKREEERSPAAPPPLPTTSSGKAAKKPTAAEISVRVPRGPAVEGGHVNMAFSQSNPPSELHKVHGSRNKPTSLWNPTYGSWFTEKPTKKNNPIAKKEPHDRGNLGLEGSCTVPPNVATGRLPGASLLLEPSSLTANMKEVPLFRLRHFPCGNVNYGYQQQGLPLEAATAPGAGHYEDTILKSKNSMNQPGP
UniProt P10398: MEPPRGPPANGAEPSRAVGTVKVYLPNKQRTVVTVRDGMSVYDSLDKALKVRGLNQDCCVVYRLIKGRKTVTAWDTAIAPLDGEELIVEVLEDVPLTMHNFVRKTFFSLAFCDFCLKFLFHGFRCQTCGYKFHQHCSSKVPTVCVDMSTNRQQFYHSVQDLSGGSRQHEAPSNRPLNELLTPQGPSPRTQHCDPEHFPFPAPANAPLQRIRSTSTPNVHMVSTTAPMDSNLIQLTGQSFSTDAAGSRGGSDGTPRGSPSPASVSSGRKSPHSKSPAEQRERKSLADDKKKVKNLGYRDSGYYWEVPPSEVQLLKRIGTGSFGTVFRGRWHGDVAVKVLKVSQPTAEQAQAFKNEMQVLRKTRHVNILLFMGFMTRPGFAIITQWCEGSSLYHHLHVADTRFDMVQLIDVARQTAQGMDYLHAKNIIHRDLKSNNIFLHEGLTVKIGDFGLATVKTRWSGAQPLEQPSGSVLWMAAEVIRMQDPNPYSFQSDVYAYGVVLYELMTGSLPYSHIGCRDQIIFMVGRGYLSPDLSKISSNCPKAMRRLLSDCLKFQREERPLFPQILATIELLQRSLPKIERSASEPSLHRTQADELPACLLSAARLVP
UniProt O14965: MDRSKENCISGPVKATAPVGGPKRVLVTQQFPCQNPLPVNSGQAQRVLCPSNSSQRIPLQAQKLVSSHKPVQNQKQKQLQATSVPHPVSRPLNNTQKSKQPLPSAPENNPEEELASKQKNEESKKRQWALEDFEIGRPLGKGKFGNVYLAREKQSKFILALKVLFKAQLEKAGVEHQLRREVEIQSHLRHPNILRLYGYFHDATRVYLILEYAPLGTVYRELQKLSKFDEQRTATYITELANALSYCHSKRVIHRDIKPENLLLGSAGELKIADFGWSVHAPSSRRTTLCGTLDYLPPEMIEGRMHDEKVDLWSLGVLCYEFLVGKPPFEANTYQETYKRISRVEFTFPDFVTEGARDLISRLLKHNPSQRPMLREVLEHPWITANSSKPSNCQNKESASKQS
UniProt Q96GD4, whole entry: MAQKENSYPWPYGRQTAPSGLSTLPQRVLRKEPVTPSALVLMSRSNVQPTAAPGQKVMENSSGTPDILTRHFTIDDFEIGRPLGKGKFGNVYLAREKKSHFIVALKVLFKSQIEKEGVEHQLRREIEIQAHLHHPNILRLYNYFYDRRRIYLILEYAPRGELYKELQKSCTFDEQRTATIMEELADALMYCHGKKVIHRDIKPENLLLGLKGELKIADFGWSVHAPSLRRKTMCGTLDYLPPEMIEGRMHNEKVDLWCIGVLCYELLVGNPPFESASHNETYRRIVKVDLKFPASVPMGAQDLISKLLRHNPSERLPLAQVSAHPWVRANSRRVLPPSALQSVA
UniProt Q9UQB9: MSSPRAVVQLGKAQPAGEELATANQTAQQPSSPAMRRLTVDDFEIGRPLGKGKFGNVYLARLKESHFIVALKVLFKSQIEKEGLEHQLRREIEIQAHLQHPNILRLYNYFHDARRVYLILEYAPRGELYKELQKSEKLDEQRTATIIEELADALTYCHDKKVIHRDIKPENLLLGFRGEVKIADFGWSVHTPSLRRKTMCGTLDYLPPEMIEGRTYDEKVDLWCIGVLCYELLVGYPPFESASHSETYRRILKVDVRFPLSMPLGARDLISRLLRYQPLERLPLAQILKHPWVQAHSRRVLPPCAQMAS
UniProt P51451: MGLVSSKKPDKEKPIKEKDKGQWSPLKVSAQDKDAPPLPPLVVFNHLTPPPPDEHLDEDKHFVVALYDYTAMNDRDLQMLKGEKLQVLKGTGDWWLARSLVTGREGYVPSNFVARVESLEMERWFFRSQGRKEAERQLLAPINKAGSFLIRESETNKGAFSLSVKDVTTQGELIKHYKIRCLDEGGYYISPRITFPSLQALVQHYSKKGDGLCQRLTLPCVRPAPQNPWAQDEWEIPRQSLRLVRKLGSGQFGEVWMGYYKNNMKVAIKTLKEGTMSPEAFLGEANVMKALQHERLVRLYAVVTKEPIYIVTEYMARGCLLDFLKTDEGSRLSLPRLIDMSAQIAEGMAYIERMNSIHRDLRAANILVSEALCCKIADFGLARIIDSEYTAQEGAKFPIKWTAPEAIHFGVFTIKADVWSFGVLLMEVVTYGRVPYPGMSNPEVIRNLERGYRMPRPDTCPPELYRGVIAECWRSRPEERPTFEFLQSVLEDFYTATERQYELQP
UniProt P51813: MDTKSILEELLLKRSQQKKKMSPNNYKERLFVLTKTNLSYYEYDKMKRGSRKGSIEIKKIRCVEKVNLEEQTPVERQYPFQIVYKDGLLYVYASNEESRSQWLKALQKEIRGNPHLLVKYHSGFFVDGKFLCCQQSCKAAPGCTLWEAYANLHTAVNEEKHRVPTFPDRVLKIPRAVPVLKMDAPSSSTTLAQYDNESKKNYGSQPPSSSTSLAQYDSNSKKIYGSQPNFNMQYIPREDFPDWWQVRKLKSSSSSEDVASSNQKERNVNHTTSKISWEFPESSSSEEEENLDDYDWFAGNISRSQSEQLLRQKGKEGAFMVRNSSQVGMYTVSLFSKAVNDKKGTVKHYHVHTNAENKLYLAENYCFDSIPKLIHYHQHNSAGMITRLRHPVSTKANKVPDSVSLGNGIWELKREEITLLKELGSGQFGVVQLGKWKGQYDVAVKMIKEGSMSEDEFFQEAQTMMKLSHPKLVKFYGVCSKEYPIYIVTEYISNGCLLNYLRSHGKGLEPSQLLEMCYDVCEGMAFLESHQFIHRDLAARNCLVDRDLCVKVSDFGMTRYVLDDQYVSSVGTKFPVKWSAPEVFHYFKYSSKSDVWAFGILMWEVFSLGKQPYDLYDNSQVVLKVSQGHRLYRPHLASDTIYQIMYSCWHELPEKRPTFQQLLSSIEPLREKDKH
UniProt Q9UQM7, whole entry: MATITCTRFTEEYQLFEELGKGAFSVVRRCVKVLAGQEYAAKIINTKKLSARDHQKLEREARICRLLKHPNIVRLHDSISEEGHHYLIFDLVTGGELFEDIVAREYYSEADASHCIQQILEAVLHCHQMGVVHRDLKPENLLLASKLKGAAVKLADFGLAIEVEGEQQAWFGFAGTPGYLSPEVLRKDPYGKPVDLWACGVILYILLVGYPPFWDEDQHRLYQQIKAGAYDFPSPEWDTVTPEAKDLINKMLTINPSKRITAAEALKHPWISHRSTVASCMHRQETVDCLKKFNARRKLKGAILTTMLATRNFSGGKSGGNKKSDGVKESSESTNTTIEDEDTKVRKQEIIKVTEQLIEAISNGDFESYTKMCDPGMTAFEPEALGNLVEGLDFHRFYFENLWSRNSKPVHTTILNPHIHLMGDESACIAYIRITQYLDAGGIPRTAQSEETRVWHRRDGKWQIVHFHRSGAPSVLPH
UniProt Q15131: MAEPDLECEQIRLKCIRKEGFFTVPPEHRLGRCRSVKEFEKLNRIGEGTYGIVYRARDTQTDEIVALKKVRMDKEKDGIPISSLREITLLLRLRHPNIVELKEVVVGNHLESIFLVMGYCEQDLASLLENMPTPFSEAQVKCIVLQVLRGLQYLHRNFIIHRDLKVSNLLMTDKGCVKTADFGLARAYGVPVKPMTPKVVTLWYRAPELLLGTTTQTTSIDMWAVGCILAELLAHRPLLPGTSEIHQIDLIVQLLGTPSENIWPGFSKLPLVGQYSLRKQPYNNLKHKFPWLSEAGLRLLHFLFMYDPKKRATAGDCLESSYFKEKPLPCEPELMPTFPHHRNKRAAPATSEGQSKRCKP
UniProt Q00526: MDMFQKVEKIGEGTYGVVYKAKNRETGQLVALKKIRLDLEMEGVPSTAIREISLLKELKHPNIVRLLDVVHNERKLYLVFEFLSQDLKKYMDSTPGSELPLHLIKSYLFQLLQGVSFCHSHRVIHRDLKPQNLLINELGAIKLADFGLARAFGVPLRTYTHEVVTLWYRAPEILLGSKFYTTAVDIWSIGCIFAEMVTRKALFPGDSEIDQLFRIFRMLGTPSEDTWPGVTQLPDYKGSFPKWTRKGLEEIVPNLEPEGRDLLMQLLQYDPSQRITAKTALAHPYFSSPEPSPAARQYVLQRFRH
UniProt P11802: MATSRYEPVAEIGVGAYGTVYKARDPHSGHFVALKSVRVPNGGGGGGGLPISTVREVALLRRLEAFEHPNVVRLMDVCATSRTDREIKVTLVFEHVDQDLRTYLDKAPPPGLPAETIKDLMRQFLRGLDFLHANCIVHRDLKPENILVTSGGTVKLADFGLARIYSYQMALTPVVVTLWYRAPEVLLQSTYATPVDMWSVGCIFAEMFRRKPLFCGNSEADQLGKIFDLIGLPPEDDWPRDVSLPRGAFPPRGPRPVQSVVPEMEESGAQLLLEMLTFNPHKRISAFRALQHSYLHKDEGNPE

Measured: kinase-Nluc reporter destabilization hit call

Nc1ncnc2c1ncn2[C@@H]1O[C@H](CO)C[C@H]1O [Cordycepin] (10 µM)
inactive: [1] 0 | [2] 0 | [3] 0 | [4] 0 | [5] 0 | [6] 0 | [7] 0 | [8] 0 | [9] 0 | [10] 0 | [11] 0 | [12] 0 | [13] 0 | [14] 0 | [15] 0 | [16] 0 | [17] 0 | [18] 0 | [19] 0 | [20] 0

COc1ccc([C@H]2c3[nH]c4ccc(Cl)cc4c3CCN2C(=O)Oc2ccc(Cl)cc2)cc1 (2.5 µM)
inactive: [1] 0 | [2] 0 | [3] 0 | [4] 0 | [5] 0 | [6] 0 | [7] 0 | [8] 0 | [9] 0 | [10] 0 | [11] 0 | [12] 0 | [13] 0 | [14] 0 | [15] 0 | [16] 0 | [17] 0 | [18] 0 | [19] 0 | [20] 0

Fc1ccc(-c2nc(-c3ccccc3F)[nH]c2-c2ccncc2)cc1 (2.5 µM)
inactive: [1] 0 | [2] 0 | [3] 0 | [4] 0 | [5] 0 | [6] 0 | [7] 0 | [8] 0 | [9] 0 | [10] 0 | [11] 0 | [12] 0 | [13] 0 | [14] 0 | [15] 0 | [16] 0 | [17] 0 | [18] 0 | [19] 0 | [20] 0

CC1CCc2nc(N)c(C#N)c(-c3cccnc3)c2C1 (stereo not given) (10 µM)
inactive: [1] 0 | [2] 0 | [3] 0 | [4] 0 | [5] 0 | [6] 0 | [7] 0 | [8] 0 | [9] 0 | [10] 0 | [11] 0 | [12] 0 | [13] 0 | [14] 0 | [15] 0 | [16] 0 | [17] 0 | [18] 0 | [19] 0 | [20] 0

CNCc1ccccc1-c1csc([C@@H](C)Nc2nc(C)nc3cc(OC)c(OC)cc23)c1 (2.5 µM)
inactive: [1] 0 | [2] 0 | [3] 0 | [4] 0 | [5] 0 | [6] 0 | [7] 0 | [8] 0 | [9] 0 | [10] 0 | [11] 0 | [12] 0 | [13] 0 | [14] 0 | [15] 0 | [16] 0 | [17] 0 | [18] 0 | [19] 0 | [20] 0

As a working copy, two of the compounds above.
COc1ccc([C@H]2c3[nH]c4ccc(Cl)cc4c3CCN2C(=O)Oc2ccc(Cl)cc2)cc1 (2.5 µM)
inactive: [1] 0 | [2] 0 | [3] 0 | [4] 0 | [5] 0 | [6] 0 | [7] 0 | [8] 0 | [9] 0 | [10] 0 | [11] 0 | [12] 0 | [13] 0 | [14] 0 | [15] 0 | [16] 0 | [17] 0 | [18] 0 | [19] 0 | [20] 0

Fc1ccc(-c2nc(-c3ccccc3F)[nH]c2-c2ccncc2)cc1 (2.5 µM)
inactive: [1] 0 | [2] 0 | [3] 0 | [4] 0 | [5] 0 | [6] 0 | [7] 0 | [8] 0 | [9] 0 | [10] 0 | [11] 0 | [12] 0 | [13] 0 | [14] 0 | [15] 0 | [16] 0 | [17] 0 | [18] 0 | [19] 0 | [20] 0

(listing goes on)

O=C(NCCCNC(=O)Nc1cccc(C2=NCCN2)c1)Nc1cccc(C2=NCCN2)c1 [p32 Inhibitor M36] (10 µM)
inactive: [1] 0 | [2] 0 | [3] 0 | [4] 0 | [5] 0 | [6] 0 | [7] 0 | [8] 0 | [9] 0 | [10] 0 | [11] 0 | [12] 0 | [13] 0 | [14] 0 | [15] 0 | [16] 0 | [17] 0 | [18] 0 | [19] 0 | [20] 0

N[C@H](Cc1c[nH]c2ccccc12)C(=O)N/N=C/c1ccc2nccnc2c1 [Rhosin (hydrochloride)] (10 µM)
inactive: [1] 0 | [2] 0 | [3] 0 | [4] 0 | [5] 0 | [6] 0 | [7] 0 | [8] 0 | [9] 0 | [10] 0 | [11] 0 | [12] 0 | [13] 0 | [14] 0 | [15] 0 | [16] 0 | [17] 0 | [18] 0 | [19] 0 | [20] 0

Nc1nccc(Oc2ccc(NC(=O)c3cn(COP(=O)(O)O)cc(-c4ccc(F)cc4)c3=O)cc2F)c1Cl (10 µM)
inactive: [1] 0 | [2] 0 | [3] 0 | [4] 0 | [5] 0 | [6] 0 | [7] 0 | [8] 0 | [9] 0 | [10] 0 | [11] 0 | [12] 0 | [13] 0 | [14] 0 | [15] 0 | [16] 0 | [17] 0 | [18] 0 | [19] 0 | [20] 0

C=C(CCC=C(C)C)[C@H]1CC[C@]2(C)[C@@H]1[C@H](O)C[C@@H]1[C@@]3(C)CC[C@H](O[C@@H]4O[C@H](CO)[C@@H](O)[C@H](O)[C@H]4O[C@@H]4O[C@H](CO)[C@@H](O)[C@H](O)[C@H]4O)C(C)(C)[C@@H]3CC[C@]12C [Ginsenoside Rk1] (10 µM)
inactive: [1] 0 | [2] 0 | [3] 0 | [4] 0 | [5] 0 | [6] 0 | [7] 0 | [8] 0 | [9] 0 | [10] 0 | [11] 0 | [12] 0 | [13] 0 | [14] 0 | [15] 0 | [16] 0 | [17] 0 | [18] 0 | [19] 0 | [20] 0

NCc1ccc(Nc2ncc(F)c(Nc3ccccc3)n2)cc1 (10 µM)
inactive: [1] 0 | [2] 0 | [3] 0 | [4] 0 | [5] 0 | [6] 0 | [7] 0 | [8] 0 | [9] 0 | [10] 0 | [11] 0 | [12] 0 | [13] 0 | [14] 0 | [15] 0 | [16] 0 | [17] 0 | [18] 0 | [19] 0 | [20] 0

CCOc1cc(C(=O)N2CCC(N3CCN(C)CC3)CC2)ccc1Nc1ncc2c(n1)N(C1CCCC1)c1ccccc1C(=O)N2C (10 µM)
inactive: [1] 0 | [2] 0 | [3] 0 | [4] 0 | [5] 0 | [6] 0 | [7] 0 | [8] 0 | [9] 0 | [10] 0 | [11] 0 | [12] 0 | [13] 0 | [14] 0 | [15] 0 | [16] 0 | [17] 0 | [18] 0 | [19] 0 | [20] 0

Cc1cc(Nc2cc(Cl)nc(Oc3ccc([N+](=O)[O-])cc3)n2)n[nH]1 [Autophinib] (2.5 µM)
inactive: [1] 0 | [2] 0 | [3] 0 | [4] 0 | [5] 0 | [6] 0 | [7] 0 | [8] 0 | [9] 0 | [10] 0 | [11] 0 | [12] 0 | [13] 0 | [14] 0 | [15] 0 | [16] 0 | [17] 0 | [18] 0 | [19] 0 | [20] 0

NC1(Cc2ccc(Cl)cc2)CCN(c2ncnc3[nH]ccc23)CC1 (10 µM)
inactive: [1] 0 | [2] 0 | [3] 0 | [4] 0 | [5] 0 | [6] 0 | [7] 0 | [8] 0 | [9] 0 | [10] 0 | [11] 0 | [12] 0 | [13] 0 | [14] 0 | [15] 0 | [16] 0 | [17] 0 | [18] 0 | [19] 0 | [20] 0

Source: the supplement of paper PMC12823440, “Inhibitors supercharge kinase turnover through native proteolytic circuits” (Nature, 2025)
